Article PMC13064919, “Novel extracellular vesicle release pathway facilitated by toxic superoxide dismutase 1 oligomers” (Neurobiology of disease, 2026)
No constants are given. Whether binding was seen depends on the method and setting. Some entries that bind do so weakly or less than the wild type.

What was measured:
[1] = biological target: Caveolin-1 (mouse (endogenous in NSC-34)) (UniProt P49817); assay: native gel or EMSA; native western blot (Tris-glycine running buffer without SDS, 12% gel) of lysate of NSC-34 cells (control, WT, A4V or FH SOD1 overexpressed); Caveolin-1 oligomers break down with 0.1 M DTT and heat
[2] = biological target: Cavin-1 (mouse (endogenous in NSC-34)) (UniProt O54724); assay: as above

binding [1] | binding [2] | Binder
binds |  | Caveolin-1 (protein, UniProt P49817 1-178) MSGGKYVDSEGHLYTVPIREQGNIYKPNNKAMADEVTEKQVYDAHTKEIDLVNRDPKHLNDDVVKIDFEDVIAEPEGTHSFDGIWKASFTTFTVTKYWFYRLLSTIFGIPMALIWGIYFAILSFLHIWAVVPCIKSFLIEIQCISRVYSIYVHTFCDPLFEAIGKIFSNIRISTQKEI
 | binds | Cavin-1 (natural protein, mouse (endogenous in NSC-34), UniProt O54724 1-392, looked up, Cavin-1, endogenous in NSC-34 cells, detected by western blot; source: endogenous, NSC-34 lysate (RIPA buffer)) MEDVTLHIVERPYSGFPDASSEGPEPTQGEARATEEPSGTGSDELIKSDQVNGVLVLSLLDKIIGAVDQIQLTQAQLEERQAEMEGAVQSIQGELSKLGKAHATTSNTVSKLLEKVRKVSVNVKTVRGSLERQAGQIKKLEVNEAELLRRRNFKVMIYQDEVKLPAKLSVSKSLKESEALPEKEGDELGEGERPEDDTAAIELSSDEAVEVEEVIEESRAERIKRSGLRRVDDFKKAFSKEKMEKTKVRTRENLEKTRLKTKENLEKTRHTLEKRMNKLGTRLVPVERREKLKTSRDKLRKSFTPDHVVYARSKTAVYKVPPFTFHVKKIREGEVEVLKATEMVEVGPEDDEVGAERGEATDLLRGSSPDVHTLLEITEESDAVLVDKSDSD
